Binding data for two molecules are collected here from paper PMC8979962.

No constants are given. Whether binding was seen depends on the method and setting. Binding seen in cells or lysates may run through a third protein. Some entries that bind do so weakly or less than the wild type. For some assays here: Where a sequence is shown, tags or fusion partners need not be part of it.

The target in experiment [1] is MCM7 (human (endogenous in NPCs)), P33993. Kind of experiment: co-IP; IP analysis in NPCs transfected with increasing concentrations of the circKIF18A lentivirus; which protein was precipitated is not told. The settings on record: remark: other sources report otherwise.
Experiment [2] concerns the target Myc-MCM7, P33993. Kind of experiment: co-IP; IP analysis in HEK-293T cells transfected with plasmids encoding circKIF18A, Myc-MCM7 or HA-UBE3A; which protein was precipitated is not told. To be noted: remark: other sources report otherwise.

B1: ubiquitin ligase E3A (UBE3A), Q05086 1-875 (enzyme)
chain: MEKLHQCYWKSGEPQSDDIEASRMKRAAAKHLIERYYHQLTEGCGNEACTNEFCASCPTFLRMDNNAAAIKALELYKINAKLCDPHPSKKGASSAYLENSKGAPNNSCSEIKMNKKGARIDFKDVTYLTEEKVYEILELCREREDYSPLIRVIGRVFSSAEALVQSFRKVKQHTKEELKSLQAKDEDKDEDEKEKAACSAAAMEEDSEASSSRIGDSSQGDNNLQKLGPDDVSVDIDAIRRVYTRLLSNEKIETAFLNALVYLSPNVECDLTYHNVYSRDPNYLNLFIIVMENRNLHSPEYLEMALPLFCKAMSKLPLAAQGKLIRLWSKYNADQIRRMMETFQQLITYKVISNEFNSRNLVNDDDAIVAASKCLKMVYYANVVGGEVDTNHNEEDDEEPIPESSELTLQELLGEERRNKKGPRVDPLETELGVKTLDCRKPLIPFEEFINEPLNEVLEMDKDYTFFKVETENKFSFMTCPFILNAVTKNLGLYYDNRIRMYSERRITVLYSLVQGQQLNPYLRLKVRRDHIIDDALVRLEMIAMENPADLKKQLYVEFEGEQGVDEGGVSKEFFQLVVEEIFNPDIGMFTYDESTKLFWFNPSSFETEGQFTLIGIVLGLAIYNNCILDVHFPMVVYRKLMGKKGTFRDLGDSHPVLYQSLKDLLEYEGNVEDDMMITFQISQTDLFGNPMMYDLKENGDKIPITNENRKEFVNLYSDYILNKSVEKQFKAFRRGFHMVTNESPLKYLFRPEEIELLICGSRNLDFQALEETTEYDGGYTRDSVLIREFWEIVHSFTDEQKRLFLQFTTGTDRAPVGGLGKLKMIIAKNGPDTERLPTSHTCFNVLLLPEYSSKEKLKERLLKAITYAKGFGML
Consider B1, for which, in experiment [1], the binding entry is “binds”.

B2: HA-UBE3A, Q05086 1-875 (enzyme)
chain: MEKLHQCYWKSGEPQSDDIEASRMKRAAAKHLIERYYHQLTEGCGNEACTNEFCASCPTFLRMDNNAAAIKALELYKINAKLCDPHPSKKGASSAYLENSKGAPNNSCSEIKMNKKGARIDFKDVTYLTEEKVYEILELCREREDYSPLIRVIGRVFSSAEALVQSFRKVKQHTKEELKSLQAKDEDKDEDEKEKAACSAAAMEEDSEASSSRIGDSSQGDNNLQKLGPDDVSVDIDAIRRVYTRLLSNEKIETAFLNALVYLSPNVECDLTYHNVYSRDPNYLNLFIIVMENRNLHSPEYLEMALPLFCKAMSKLPLAAQGKLIRLWSKYNADQIRRMMETFQQLITYKVISNEFNSRNLVNDDDAIVAASKCLKMVYYANVVGGEVDTNHNEEDDEEPIPESSELTLQELLGEERRNKKGPRVDPLETELGVKTLDCRKPLIPFEEFINEPLNEVLEMDKDYTFFKVETENKFSFMTCPFILNAVTKNLGLYYDNRIRMYSERRITVLYSLVQGQQLNPYLRLKVRRDHIIDDALVRLEMIAMENPADLKKQLYVEFEGEQGVDEGGVSKEFFQLVVEEIFNPDIGMFTYDESTKLFWFNPSSFETEGQFTLIGIVLGLAIYNNCILDVHFPMVVYRKLMGKKGTFRDLGDSHPVLYQSLKDLLEYEGNVEDDMMITFQISQTDLFGNPMMYDLKENGDKIPITNENRKEFVNLYSDYILNKSVEKQFKAFRRGFHMVTNESPLKYLFRPEEIELLICGSRNLDFQALEETTEYDGGYTRDSVLIREFWEIVHSFTDEQKRLFLQFTTGTDRAPVGGLGKLKMIIAKNGPDTERLPTSHTCFNVLLLPEYSSKEKLKERLLKAITYAKGFGML
B2: the binding entry in experiment [2] is recorded as “binds”.
